Measured values: US20160090556A1, “PRODUCTS COMPRISING MALODOR REDUCTION MATERIALS” (The Procter & Gamble Company, priority 2014, published 2016)
Where two headings read alike, the source gives them in different places. Some entries repeat one wording, which the source may state once for all of them.

What was measured:
[1] = Melamine formaldehyde PMC Headspace Response Ratio; conditions: for Comment Code: Melamine formaldehyde PMC Headspace Response Ratio: code letter I
[2] = Melamine formaldehyde PMC leakage; conditions: for Comment Code: Melamine formaldehyde PMC leakage: code letter J
[3] = class code letter within Comment Code

| Compound | Comment Code: Melamine formaldehyde PMC Headspace Response Ratio [1] | Comment Code: Melamine formaldehyde PMC leakage [2] | Melamine formaldehyde PMC Headspace Response Ratio (Comment Code I) [1] | Melamine formaldehyde PMC leakage (Comment Code J) [2] | other results |
| --- | --- | --- | --- | --- | --- |
| CC/C=C\CC1=C(C)CCC1=O [Material 526] | I (Melamine formaldehyde PMC Headspace Response Ratio greater than or equal to 10) | J (Melamine formaldehyde PMC leakage less than or equal to 5%) | – | – | – |
| C=C(C)C1CCC2(C)OC2C1 (stereo not shown) [Material 527] | – | – | – | – | Melamine formaldehyde PMC Headspace Response Ratio (Comment Code I) [1, 3]: I (Melamine formaldehyde PMC Headspace Response Ratio greater than or equal to 10); Melamine formaldehyde PMC leakage (Comment Code J) [2, 3]: J (Melamine formaldehyde PMC leakage less than or equal to 5%) |
| Cc1cc(O)cc(C)c1Cl [Material 557] | I (Melamine formaldehyde PMC Headspace Response Ratio greater than or equal to 10) | J (Melamine formaldehyde PMC leakage less than or equal to 5%) | – | – | – |
| CC1C(C)(C)C2=C(C(=O)CCC2)C1(C)C (stereo not shown) [Material 572] | – | – | I (Melamine formaldehyde PMC Headspace Response Ratio greater than or equal to 10) | J (Melamine formaldehyde PMC leakage less than or equal to 5%) | – |
| Cc1ccc(C(C)C)cc1O [Material 575] | I (Melamine formaldehyde PMC Headspace Response Ratio greater than or equal to 10) | J (Melamine formaldehyde PMC leakage less than or equal to 5%) | – | – | – |
| C=C(C)C1CC=C(C)C(=O)C1 (stereo not shown) [Material 576] | I (Melamine formaldehyde PMC Headspace Response Ratio greater than or equal to 10) | J (Melamine formaldehyde PMC leakage less than or equal to 5%) | – | – | – |
| C=C(C)C1CC=C(C)C(OC(C)=O)C1 (stereo not shown) [Material 577] | – | – | I (Melamine formaldehyde PMC Headspace Response Ratio greater than or equal to 10) | J (Melamine formaldehyde PMC leakage less than or equal to 5%) | – |
| CC1=CCC(CC#N)C1(C)C (stereo not shown) [Material 585] | I (Melamine formaldehyde PMC Headspace Response Ratio greater than or equal to 10) | J (Melamine formaldehyde PMC leakage less than or equal to 5%) | – | – | – |
| CC12CCC(C(=O)C1=O)C2(C)C (stereo not shown) [Material 587] | – | – | I (Melamine formaldehyde PMC Headspace Response Ratio greater than or equal to 10) | J (Melamine formaldehyde PMC leakage less than or equal to 5%) | – |
| CC12CCC(CC1=O)C2(C)C (stereo not shown) [Material 588] | I (Melamine formaldehyde PMC Headspace Response Ratio greater than or equal to 10) | J (Melamine formaldehyde PMC leakage less than or equal to 5%) | – | – | – |
| C=C1C2CCC(C2)C1(C)C (stereo not shown) [Material 589] | – | – | I (Melamine formaldehyde PMC Headspace Response Ratio greater than or equal to 10) | J (Melamine formaldehyde PMC leakage less than or equal to 5%) | – |
| CC(C)C(=O)OC1CC2CCC1(C)C2(C)C (stereo not shown) [Material 603] | I (Melamine formaldehyde PMC Headspace Response Ratio greater than or equal to 10) | J (Melamine formaldehyde PMC leakage less than or equal to 5%) | I (Melamine formaldehyde PMC Headspace Response Ratio greater than or equal to 10) | J (Melamine formaldehyde PMC leakage less than or equal to 5%) | – |
| CC(=O)OC1CC2CCC1(C)C2(C)C (stereo not shown) [Material 604] | – | – | I (Melamine formaldehyde PMC Headspace Response Ratio greater than or equal to 10) | J (Melamine formaldehyde PMC leakage less than or equal to 5%) | – |
| C=C(C)C1CCC(C)(O)CC1 (stereo not shown) [Material 612] | – | – | I (Melamine formaldehyde PMC Headspace Response Ratio greater than or equal to 10) | J (Melamine formaldehyde PMC leakage less than or equal to 5%) | – |
| CC1(C)C2CCC3(CO3)C1C2 (stereo not shown) [Material 617] | I (Melamine formaldehyde PMC Headspace Response Ratio greater than or equal to 10) | J (Melamine formaldehyde PMC leakage less than or equal to 5%) | – | – | – |
| C=C1C=CC(C(C)C)CC1 (stereo not shown) [Material 619] | I (Melamine formaldehyde PMC Headspace Response Ratio greater than or equal to 10) | J (Melamine formaldehyde PMC leakage less than or equal to 5%) | – | – | – |
| CC(=O)C=CC12OC1(C)CCCC2(C)C (stereo not shown) [Material 636] | – | – | I (Melamine formaldehyde PMC Headspace Response Ratio greater than or equal to 10) | J (Melamine formaldehyde PMC leakage less than or equal to 5%) | – |
| CC(OC=O)C1CCCC(C)(C)C1 (stereo not shown) [Material 662] | I (Melamine formaldehyde PMC Headspace Response Ratio greater than or equal to 10) | J (Melamine formaldehyde PMC leakage less than or equal to 5%) | – | – | – |
| CC(C)[C@@]12CC(=O)[C@H](C)[C@@H]1C2 [Material 683] | – | – | I (Melamine formaldehyde PMC Headspace Response Ratio greater than or equal to 10) | J (Melamine formaldehyde PMC leakage less than or equal to 5%) | – |

| Compound | Comment Code: Melamine formaldehyde PMC Headspace Response Ratio [1] | Comment Code: Melamine formaldehyde PMC leakage [2] | Melamine formaldehyde PMC Headspace Response Ratio (Comment Code I) [1] | Melamine formaldehyde PMC leakage (Comment Code J) [2] | other results |
| --- | --- | --- | --- | --- | --- |
| C=C(C)C1CC=C(C)CC1 (stereo not shown) [Material 702] | – | – | I (Melamine formaldehyde PMC Headspace Response Ratio greater than or equal to 10) | J (Melamine formaldehyde PMC leakage less than or equal to 5%) | – |
| CC(=O)C(C)=CC1C(C)=CCCC1(C)C (stereo not shown) [Material 703] | I (Melamine formaldehyde PMC Headspace Response Ratio greater than or equal to 10) | J (Melamine formaldehyde PMC leakage less than or equal to 5%) | – | – | – |
| C=C1CC2CCC1C2(C)C (stereo not shown) [Material 711] | – | – | I (Melamine formaldehyde PMC Headspace Response Ratio greater than or equal to 10) | J (Melamine formaldehyde PMC leakage less than or equal to 5%) | – |
| COC1=C(C)OC(C)C1=O (stereo not shown) [Material 740] | I (Melamine formaldehyde PMC Headspace Response Ratio greater than or equal to 10) | J (Melamine formaldehyde PMC leakage less than or equal to 5%) | – | – | – |
| CCC(C)CC(CC)CCCC(C)O (stereo not shown) [Material 779] | I (Melamine formaldehyde PMC Headspace Response Ratio greater than or equal to 10) | J (Melamine formaldehyde PMC leakage less than or equal to 5%) | – | – | – |
| C=CC1(C)CCC(C(=C)C)O1 (stereo not shown) [Material 786] | – | – | I (Melamine formaldehyde PMC Headspace Response Ratio greater than or equal to 10) | J (Melamine formaldehyde PMC leakage less than or equal to 5%) | – |
| CC1=CCC(O)(C(C)C)CC1 (stereo not shown) [Material 791] | – | – | I (Melamine formaldehyde PMC Headspace Response Ratio greater than or equal to 10) | J (Melamine formaldehyde PMC leakage less than or equal to 5%) | – |
| Cc1coc2c1CCC(C)C2 (stereo not shown) [Material 802] | – | – | I (Melamine formaldehyde PMC Headspace Response Ratio greater than or equal to 10) | J (Melamine formaldehyde PMC leakage less than or equal to 5%) | – |
| C=C(C=O)C(C)CCC=C(C)C (stereo not shown) [Material 819] | I (Melamine formaldehyde PMC Headspace Response Ratio greater than or equal to 10) | J (Melamine formaldehyde PMC leakage less than or equal to 5%) | – | – | – |
| CC(C)CCCC(C)CCO (stereo not shown) [Material 820] | I (Melamine formaldehyde PMC Headspace Response Ratio greater than or equal to 10) | J (Melamine formaldehyde PMC leakage less than or equal to 5%) | – | – | – |
| CCC(C)CCC(C)(CC)OC(C)=O (stereo not shown) [Material 821] | – | – | I (Melamine formaldehyde PMC Headspace Response Ratio greater than or equal to 10) | J (Melamine formaldehyde PMC leakage less than or equal to 5%) | – |
| CNC(=O)C(C)(C(C)C)C(C)C [Material 846] | I (Melamine formaldehyde PMC Headspace Response Ratio greater than or equal to 10) | J (Melamine formaldehyde PMC leakage less than or equal to 5%) | – | – | – |
| CC(C)CC=C(C=O)C(C)C [Material 847] | I (Melamine formaldehyde PMC Headspace Response Ratio greater than or equal to 10) | J (Melamine formaldehyde PMC leakage less than or equal to 5%) | – | – | – |
| Cc1csc(C(C)C)n1 [Material 848] | I (Melamine formaldehyde PMC Headspace Response Ratio greater than or equal to 10) | J (Melamine formaldehyde PMC leakage less than or equal to 5%) | – | – | – |
| CCC(C)CCCC(C)C=O (stereo not shown) [Material 866] | – | – | I (Melamine formaldehyde PMC Headspace Response Ratio greater than or equal to 10) | J (Melamine formaldehyde PMC leakage less than or equal to 5%) | – |
| CC12CCC(CC1)C(C)(C)S2 [Material 873] | – | – | I (Melamine formaldehyde PMC Headspace Response Ratio greater than or equal to 10) | J (Melamine formaldehyde PMC leakage less than or equal to 5%) | – |
| CC(C)C12CCC(C)(CC1)O2 [Material 875] | I (Melamine formaldehyde PMC Headspace Response Ratio greater than or equal to 10) | J (Melamine formaldehyde PMC leakage less than or equal to 5%) | – | – | – |
| CCC(C)(O)CCC=C(C)C (stereo not shown) [Material 877] | – | – | I (Melamine formaldehyde PMC Headspace Response Ratio greater than or equal to 10) | J (Melamine formaldehyde PMC leakage less than or equal to 5%) | – |
